Laboratory results as given in publication doi:10.64898/2025.12.08.692968.
Results are given in words; binding and its absence hold for the method and conditions named. Binding seen in cells or lysates may run through a third protein. A yes stands for co-enrichment or nearness to the bait. Other partners may have been found. Sequences can lack the tags named with a protein. One block for each molecule: values may come before it.

Protein sequences, listed by entry. Tags and fused reporters are not part of them.
UniProt P23116: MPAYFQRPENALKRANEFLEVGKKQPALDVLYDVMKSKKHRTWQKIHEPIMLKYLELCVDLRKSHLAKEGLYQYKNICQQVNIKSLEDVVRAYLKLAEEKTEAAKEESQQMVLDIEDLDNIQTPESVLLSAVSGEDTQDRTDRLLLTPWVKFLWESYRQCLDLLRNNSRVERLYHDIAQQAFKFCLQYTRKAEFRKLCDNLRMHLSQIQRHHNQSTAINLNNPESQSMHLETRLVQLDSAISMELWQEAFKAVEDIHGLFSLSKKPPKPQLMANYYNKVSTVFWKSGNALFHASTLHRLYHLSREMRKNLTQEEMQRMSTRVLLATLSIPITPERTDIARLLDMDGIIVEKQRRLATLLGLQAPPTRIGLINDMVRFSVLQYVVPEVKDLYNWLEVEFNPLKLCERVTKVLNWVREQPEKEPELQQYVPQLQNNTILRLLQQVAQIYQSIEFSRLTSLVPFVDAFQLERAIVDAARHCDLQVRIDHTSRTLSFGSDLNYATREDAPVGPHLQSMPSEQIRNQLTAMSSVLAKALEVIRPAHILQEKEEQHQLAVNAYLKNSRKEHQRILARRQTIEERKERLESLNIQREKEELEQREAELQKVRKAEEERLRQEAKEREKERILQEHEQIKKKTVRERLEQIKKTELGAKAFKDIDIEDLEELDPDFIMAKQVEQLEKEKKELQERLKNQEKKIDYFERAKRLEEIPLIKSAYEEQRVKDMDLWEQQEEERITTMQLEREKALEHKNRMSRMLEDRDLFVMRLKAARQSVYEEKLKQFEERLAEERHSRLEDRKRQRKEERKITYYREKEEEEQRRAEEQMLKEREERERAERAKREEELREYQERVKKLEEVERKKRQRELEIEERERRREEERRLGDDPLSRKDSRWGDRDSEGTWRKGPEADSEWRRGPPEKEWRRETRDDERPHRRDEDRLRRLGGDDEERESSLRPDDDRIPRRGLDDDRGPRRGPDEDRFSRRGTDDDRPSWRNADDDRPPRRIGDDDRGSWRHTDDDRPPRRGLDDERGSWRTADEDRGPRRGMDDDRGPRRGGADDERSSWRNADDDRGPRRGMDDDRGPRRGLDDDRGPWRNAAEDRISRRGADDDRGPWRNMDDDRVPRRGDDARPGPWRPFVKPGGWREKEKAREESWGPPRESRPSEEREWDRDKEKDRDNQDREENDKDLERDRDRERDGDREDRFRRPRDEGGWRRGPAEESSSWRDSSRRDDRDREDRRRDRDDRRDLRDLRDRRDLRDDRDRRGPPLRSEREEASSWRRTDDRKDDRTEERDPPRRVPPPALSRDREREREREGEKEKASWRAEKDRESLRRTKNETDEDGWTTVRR

Target: T1, TENT5A (Tent5a_Myc) (mouse) (UniProt D3Z5S8)
T1 sequence: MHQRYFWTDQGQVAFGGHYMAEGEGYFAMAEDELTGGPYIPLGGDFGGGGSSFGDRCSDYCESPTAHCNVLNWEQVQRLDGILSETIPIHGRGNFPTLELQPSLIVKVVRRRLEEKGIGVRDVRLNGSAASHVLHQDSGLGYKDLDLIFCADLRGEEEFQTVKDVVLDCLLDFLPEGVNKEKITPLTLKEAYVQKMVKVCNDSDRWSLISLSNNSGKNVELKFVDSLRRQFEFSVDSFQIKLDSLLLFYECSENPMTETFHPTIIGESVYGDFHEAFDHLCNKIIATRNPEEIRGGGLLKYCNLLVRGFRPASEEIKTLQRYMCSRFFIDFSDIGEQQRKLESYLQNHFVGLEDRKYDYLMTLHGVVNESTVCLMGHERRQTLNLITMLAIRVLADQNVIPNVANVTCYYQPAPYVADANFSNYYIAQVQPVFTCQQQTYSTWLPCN
Assay: affinity purification with mass spectrometry

Molecule: EIF3A translation initiation protein (from UniProt P23116 1-1344)
binding: binds

B2: CPSF7, a cleavage and poly(A)denylation factor (protein, UniProt Q8BTV2 1-471)
chain: MSEGVDLIDIYADEEFNQDSEFNNTDQIDLYDDVLTAASQPSDDRSSSTEPPPPVRQEPAPKPNNKTPAILYTYSGLRSRRAAVYVGSFSWWTTDQQLIQVIRSIGVYDVVELKFAENRANGQSKGYAEVVVASENSVHKLLELLPGKVLNGEKVDVRPATRQNLSQFEAQARKRECVRVPRGGIPPRAHSRDSSDSADGRATPSENLVPSSARVDKPPSVLPYFNRPPSALPLMGLPPPPIPPPPPLSSSFGVPPPPPGIHYQHLMPPPPRLPPHLAVPPPGAIPPALHLNPAFFPPPNATVGPPPDTYMKASTPYNHHGSRDSGPPPSTVSEAEFEEIMKRNRAISSSAISKAVSGASAGDYSDAIETLLTAIAVIKQSRVANDERCRVLISSLKDCLHGIEAKSYSVGASGSSSRKRHRSRERSPSRSRESSRRHRDLLHNEDRHDDYFQERNREHERHRDRERDRHH
binding: binds

Other lines, results leading:

binding: binds
B1: Erlin2 (protein, UniProt Q8BFZ9 1-340)
chain: MAQLGAVVAVASSFFCASLFSAVHKIEEGHIGVYYRGGALLTSTSGPGFHLMLPFITSYKSVQTTLQTDEVKNVPCGTSGGVMIYFDRIEVVNFLVPNAVYDIVKNYTADYDKALIFNKIHHELNQFCSVHTLQEVYIELFDQIDENLKLALQQDLTSMAPGLVIQAVRVTKPNIPEAIRRNYELMESEKTKLLIAAQKQKVVEKEAETERKKALIEAEKVAQVAEITYGQKVMEKETEKKISEIEDAAFLAREKAKADAECYTALKIAEANKLKLTPEYLQLMKYKAIASNSKIYFGKDIPNMFMDSAGGLGKQFEGLSDDKLGFGLEDEPLEAPTKEN

binding: binds
B3: Granulin (GRN) (protein, UniProt P28798 18-589)
chain: TQCPDGQFCPVACCLDQGGANYSCCNPLLDTWPRITSHHLDGSCQTHGHCPAGYSCLLTVSGTSSCCPFSKGVSCGDGYHCCPQGFHCSADGKSCFQMSDNPLGAVQCPGSQFECPDSATCCIMVDGSWGCCPMPQASCCEDRVHCCPHGASCDLVHTRCVSPTGTHTLLKKFPAQKTNRAVSLPFSVVCPDAKTQCPDDSTCCELPTGKYGCCPMPNAICCSDHLHCCPQDTVCDLIQSKCLSKNYTTDLLTKLPGYPVKEVKCDMEVSCPEGYTCCRLNTGAWGCCPFAKAVCCEDHIHCCPAGFQCHTEKGTCEMGILQVPWMKKVIAPLRLPDPQILKSDTPCDDFTRCPTNNTCCKLNSGDWGCCPIPEAVCCSDNQHCCPQGFTCLAQGYCQKGDTMVAGLEKIPARQTTPLQIGDIGCDQHTSCPVGQTCCPSLKGSWACCQLPHAVCCEDRQHCCPAGYTCNVKARTCEKDVDFIQPPVLLTLGPKVGNVECGEGHFCHDNQTCCKDSAGVWACCPYLKGVCCRDGRHCCPGGFHCSARGTKCLRKKIPRWDMFLRDPVPRPLL
